# Results: paper PMC7819943, “Rice protein-binding microarrays: a tool to detect cis-acting elements near promoter regions in rice”
# Protein sequences, listed by entry. Tags and fused reporters are not part of them.
# UniProt Q0JBA9, entry or part of it: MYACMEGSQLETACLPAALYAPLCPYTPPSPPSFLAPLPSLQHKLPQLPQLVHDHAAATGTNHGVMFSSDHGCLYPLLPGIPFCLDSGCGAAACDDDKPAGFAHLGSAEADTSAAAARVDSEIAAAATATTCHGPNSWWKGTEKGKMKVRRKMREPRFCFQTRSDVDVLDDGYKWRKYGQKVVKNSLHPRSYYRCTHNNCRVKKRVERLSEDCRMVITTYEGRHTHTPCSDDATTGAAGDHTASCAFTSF
# The other results are listed elsewhere or left out.
# Target: OsWRKY34 (Oryza sativa, UniProt Q0JBA9 1-250)
# Assay: protein-binding microarray (RPBM); PBS, 2% BSA, 51.3 ng/ul salmon testes DNA, 50 uM zinc acetate, 200 nM TF, 25 C, 1 h; high values mean tight binding
# Settings: protein: recombinant; tags: N-terminal polyhistidine and DsRed monomer fusion (pET32a); label: CyDye5-dUTP incorporated in the synthesized complementary strand; 3' TTTTT single-stranded linker to array surface; dsDNA, one strand shown
# How it was run: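 Binding signal here means per-feature fluorescence intensity in arbitrary units. The values were read on an Axon 4000B scanner after a custom Agilent array, double-stranded by primer extension with Cy5-dUTP, was incubated with 200 nM protein at 25 °C for 1 h in PBS with 2% BSA, salmon testes DNA and 50 µM zinc acetate, then washed. The proteins were transcription factors with an N-terminal polyhistidine tag and DsRed, expressed in E. coli BL21-CodonPlus and purified on Ni–NTA.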
row,Sequence,binding signal
1,CTAGTAGTATAGGGAGGGAGCGGGCGGGTGATCGCTAGGCCGGAGTCACCTAGTGCAG,8190 fluorescence intensity (a.u.)
2,CAAAATTTTCATTTTTTGGGGTGCCTTTTTCACCTTCTTGCGGAGTCACCTAGTGCAG,9750 fluorescence intensity (a.u.)
3,TTTATTTAAATATTTCTTTTCACTTCCTTGCTCACTGACTCGGAGTCACCTAGTGCAG,11000 fluorescence intensity (a.u.)
4,GTCAAGAATGTGCTAAAAAGTCAACGGTGTCAAACAGTTTCGGAGTCACCTAGTGCAG,10600 fluorescence intensity (a.u.)
5,GTACTCGTATTTTGGTCAACTATTTAATTTATCTCTCATTCGGAGTCACCTAGTGCAG,8990 fluorescence intensity (a.u.)
6,CTGTTATTGTACCTGTTCTAATAGCTCACCTTGTTTTACGCGGAGTCACCTAGTGCAG,10800 fluorescence intensity (a.u.)
7,TACCTCACTGCCTTTTGCCTGCCAGGGGATATCTAAGACACGGAGTCACCTAGTGCAG,9250 fluorescence intensity (a.u.)
8,CTTCGTTTTCCTATTTACGACATTACAGGGTTTGTAATCTCGGAGTCACCTAGTGCAG,9130 fluorescence intensity (a.u.)
9,CTGAAGTGAGGGAGGGGAGGAGGTGGTGGTGGTGGGGAAGCGGAGTCACCTAGTGCAG,15600 fluorescence intensity (a.u.)
10,CTCCTCTTCGATCTTGTTGTTCTTCAACGCAGATTTTGTTCGGAGTCACCTAGTGCAG,8460 fluorescence intensity (a.u.)
11,CCTTTCACCCGCCCAAACTCATCCATCCATCGATCGCCCTCGGAGTCACCTAGTGCAG,8560 fluorescence intensity (a.u.)
12,TCACTTCTGCAACCTGGTCAGCCAATTCATCCCGTGCTCACGGAGTCACCTAGTGCAG,10300 fluorescence intensity (a.u.)
13,TCCACCACAGCCACCATCGATCTGCAGCCAGCCAGCCAACCGGAGTCACCTAGTGCAG,9130 fluorescence intensity (a.u.)
14,CCTCGACCTCCACCGCCGCATCCTCGCGCTCGTCCGCGAGCGGAGTCACCTAGTGCAG,10200 fluorescence intensity (a.u.)
15,ACATGATTATATTCCGATTAAAACCATTAGTACTTCGTCTCGGAGTCACCTAGTGCAG,8440 fluorescence intensity (a.u.)
16,TCCTTTCTTCAGGATCGCAGCATTTTGCTGTCATTATTTCCGGAGTCACCTAGTGCAG,8710 fluorescence intensity (a.u.)
17,GAAGTGTTGTGGTTACAAATTAGTTTTTGACTTTTATCTCCGGAGTCACCTAGTGCAG,10400 fluorescence intensity (a.u.)
18,TTACTGCCGCCGCATCCTCGCCGGAGCCGCTTCTTCTCCGCGGAGTCACCTAGTGCAG,10900 fluorescence intensity (a.u.)
19,TTCCGAATTCTGCACCGGCCATCATATGCTGGGGCGGGCGCGGAGTCACCTAGTGCAG,9390 fluorescence intensity (a.u.)
20,CTCCTCTACTAGCTCGTCTCCATCTCTTCTACTCGTCCAGCGGAGTCACCTAGTGCAG,8260 fluorescence intensity (a.u.)
21,TCCCTTCTTACAGGCCAACCTCGCAAAGTTGCTGCTCCTCCGGAGTCACCTAGTGCAG,10200 fluorescence intensity (a.u.)

# Pulled one by one from the list above (2):
row,Sequence,binding signal
5,GTACTCGTATTTTGGTCAACTATTTAATTTATCTCTCATTCGGAGTCACCTAGTGCAG,8990 fluorescence intensity (a.u.)
6,CTGTTATTGTACCTGTTCTAATAGCTCACCTTGTTTTACGCGGAGTCACCTAGTGCAG,10800 fluorescence intensity (a.u.)

# (listing goes on)

row,Sequence,binding signal
1,CTCCCACCGCTCTCTCTCTCTCTCTCTCTCTCTCTCTCTCCGGAGTCACCTAGTGCAG,11200 fluorescence intensity (a.u.)
2,ACTCATCGCCACGTTGCTAATTTAGCTGACTTTGTCAACTCGGAGTCACCTAGTGCAG,9600 fluorescence intensity (a.u.)
3,CGACGAACAGACGCGCGCCTTCTTAATGCAATCACCATCACGGAGTCACCTAGTGCAG,8600 fluorescence intensity (a.u.)
4,GGCCGCTCACTAGCCTGCCGCTGCCGCTCTGGTTCTCCAACGGAGTCACCTAGTGCAG,8840 fluorescence intensity (a.u.)
5,ATCTACCATCCGACGCCCCGCAACCAAACCCGCCGCTGTACGGAGTCACCTAGTGCAG,9320 fluorescence intensity (a.u.)
6,CGTCGACCCGTTTTCTCTCCTCTTCTCGATCGTTATATCGCGGAGTCACCTAGTGCAG,8290 fluorescence intensity (a.u.)
7,TCGCACGTGCTGATCTCCGGCGCCACCACCTACCGCCATTCGGAGTCACCTAGTGCAG,8180 fluorescence intensity (a.u.)
8,CTTACATGTGGTCCTCATGAGGCAATGCATCTTGGACACCCGGAGTCACCTAGTGCAG,9820 fluorescence intensity (a.u.)
9,AAACTTCACACGTTGTAATGCACAGACATTTTTTCTAGTCCGGAGTCACCTAGTGCAG,10100 fluorescence intensity (a.u.)
10,ACCACCATCACTAGCTCTCGTAAAAAATCTCAACTTTTTGCGGAGTCACCTAGTGCAG,8470 fluorescence intensity (a.u.)
11,TTCTGTTTGGGTTTTGATTTGTTTCGGTTTGGCTGTTCTTCGGAGTCACCTAGTGCAG,10600 fluorescence intensity (a.u.)
12,GGCACCGTGCTCTGGCTGACCACTTCGCGCCGCCGCCCTCCGGAGTCACCTAGTGCAG,9900 fluorescence intensity (a.u.)
13,CGCTTCTCCGCTTTTCGGGCTGTCGTGGATGCTGTCGGGGCGGAGTCACCTAGTGCAG,9480 fluorescence intensity (a.u.)
14,GCCTACATGCCCCATTTTCAATCTCTTTCGATACCATACTCGGAGTCACCTAGTGCAG,8930 fluorescence intensity (a.u.)
15,ACCCGAGATCTGATTCACTACCGCCGCCGGATCAAGCCACCGGAGTCACCTAGTGCAG,8320 fluorescence intensity (a.u.)
16,CAGATTTTTGCCGCCCATACCCTCGATTCCTCGTGATCTCCGGAGTCACCTAGTGCAG,9730 fluorescence intensity (a.u.)
17,TGTCCTGTCCATTGCTACTCCTTGTATTACACTACATAATCGGAGTCACCTAGTGCAG,9380 fluorescence intensity (a.u.)
18,CCTTACACTAACAGAGAGCTCTTCTTCTTCTTCTTCTTCTCGGAGTCACCTAGTGCAG,9040 fluorescence intensity (a.u.)
19,GATCTCTTGCAGCTGCGCATCTGTGCATGCATCCACACTACGGAGTCACCTAGTGCAG,9260 fluorescence intensity (a.u.)
20,ACCTCCACCGCGCCGCCGCCGCCGCTCCAGAGTCCAACGCCGGAGTCACCTAGTGCAG,8700 fluorescence intensity (a.u.)
21,ACTTTGTTATTGGTAATTTTCCTTGTGATTTGCTGGAAGTCGGAGTCACCTAGTGCAG,8620 fluorescence intensity (a.u.)
